Laboratory results as given in PMC8373074.
These are yes or no findings as the source states them, for the method shown. Some binding calls cover weakened binding; strength is not graded here.

By UniProt entry, the sequences of proteins in these tests, tags left out.
UniProt P07305: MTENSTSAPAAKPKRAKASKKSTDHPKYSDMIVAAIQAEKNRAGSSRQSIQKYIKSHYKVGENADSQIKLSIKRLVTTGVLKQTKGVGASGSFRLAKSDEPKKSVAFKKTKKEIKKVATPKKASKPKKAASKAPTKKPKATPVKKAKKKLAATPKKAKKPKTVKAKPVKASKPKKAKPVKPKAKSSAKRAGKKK

Target: recombinant histone H1.0 (UniProt P07305)
Assay: cross-linking; recombinant histones mixed (100 pmol each) in 100 mM HEPES pH 7.6, SDS removed, treated with one-tenth volume of 0.5% formaldehyde at 25°C for 10 min; 2D electrophoresis (AUT-PAGE then SDS-PAGE) and western blot; both purified

binding: binds
Substance: recombinant histone H1.0 (from UniProt P07305 1-194) (other; other documents disagree on this pair)
